# The supplement of paper PMC10849652
# By UniProt entry, the sequences of proteins in these tests, tags left out. Where a name states a change or a piece, a line headed by the entry shows the natural chain unless it says otherwise.
# UniProt O15530: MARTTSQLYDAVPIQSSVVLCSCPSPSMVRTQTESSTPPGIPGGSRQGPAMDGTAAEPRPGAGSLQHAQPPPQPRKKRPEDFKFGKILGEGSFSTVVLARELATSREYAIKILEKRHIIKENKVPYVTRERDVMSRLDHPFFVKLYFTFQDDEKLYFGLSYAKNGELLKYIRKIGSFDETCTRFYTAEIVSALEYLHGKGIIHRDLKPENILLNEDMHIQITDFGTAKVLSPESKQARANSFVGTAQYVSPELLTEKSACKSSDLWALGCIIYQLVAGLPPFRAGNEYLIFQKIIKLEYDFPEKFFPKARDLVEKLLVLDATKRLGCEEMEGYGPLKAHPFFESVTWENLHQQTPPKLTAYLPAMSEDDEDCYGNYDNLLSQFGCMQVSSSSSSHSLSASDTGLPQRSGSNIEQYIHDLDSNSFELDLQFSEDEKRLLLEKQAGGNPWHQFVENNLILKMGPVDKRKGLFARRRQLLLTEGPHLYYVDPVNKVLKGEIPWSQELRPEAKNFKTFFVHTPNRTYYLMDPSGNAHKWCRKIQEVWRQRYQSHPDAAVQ
# UniProt Q01813: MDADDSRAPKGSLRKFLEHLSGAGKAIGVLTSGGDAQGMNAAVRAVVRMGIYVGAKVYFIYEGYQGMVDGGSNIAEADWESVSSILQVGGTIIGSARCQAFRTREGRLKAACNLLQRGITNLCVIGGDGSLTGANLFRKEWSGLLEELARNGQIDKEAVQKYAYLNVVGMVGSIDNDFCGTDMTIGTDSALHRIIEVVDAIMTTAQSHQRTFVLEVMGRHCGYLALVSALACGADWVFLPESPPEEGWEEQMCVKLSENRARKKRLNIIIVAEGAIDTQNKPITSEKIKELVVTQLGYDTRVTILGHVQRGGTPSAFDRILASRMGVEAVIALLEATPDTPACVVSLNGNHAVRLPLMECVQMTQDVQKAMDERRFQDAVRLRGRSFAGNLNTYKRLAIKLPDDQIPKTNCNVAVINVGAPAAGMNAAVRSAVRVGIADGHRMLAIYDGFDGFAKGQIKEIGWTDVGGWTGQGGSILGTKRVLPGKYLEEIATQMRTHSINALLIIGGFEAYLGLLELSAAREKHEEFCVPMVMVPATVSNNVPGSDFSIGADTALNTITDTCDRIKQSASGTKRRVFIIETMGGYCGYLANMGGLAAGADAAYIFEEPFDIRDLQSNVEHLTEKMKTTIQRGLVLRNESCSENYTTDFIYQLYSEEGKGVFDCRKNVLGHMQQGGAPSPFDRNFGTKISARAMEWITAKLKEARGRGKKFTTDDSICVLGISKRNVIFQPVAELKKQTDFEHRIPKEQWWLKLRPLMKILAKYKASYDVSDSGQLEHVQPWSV
# UniProt P0DJ07: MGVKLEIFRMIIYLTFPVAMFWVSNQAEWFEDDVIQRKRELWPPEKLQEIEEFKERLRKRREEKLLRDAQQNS
# UniProt Q99447: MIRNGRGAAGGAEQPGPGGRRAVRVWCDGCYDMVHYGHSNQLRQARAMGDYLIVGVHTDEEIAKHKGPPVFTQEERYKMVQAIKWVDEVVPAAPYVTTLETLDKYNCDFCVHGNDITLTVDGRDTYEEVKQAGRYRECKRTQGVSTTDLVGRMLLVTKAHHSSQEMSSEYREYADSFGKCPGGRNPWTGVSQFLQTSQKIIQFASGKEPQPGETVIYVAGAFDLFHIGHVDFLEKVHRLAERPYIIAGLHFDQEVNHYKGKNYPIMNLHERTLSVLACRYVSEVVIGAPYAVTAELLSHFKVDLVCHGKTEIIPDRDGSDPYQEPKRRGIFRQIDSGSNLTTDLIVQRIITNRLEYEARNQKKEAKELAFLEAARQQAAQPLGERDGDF
# UniProt O00408, whole entry, looked up: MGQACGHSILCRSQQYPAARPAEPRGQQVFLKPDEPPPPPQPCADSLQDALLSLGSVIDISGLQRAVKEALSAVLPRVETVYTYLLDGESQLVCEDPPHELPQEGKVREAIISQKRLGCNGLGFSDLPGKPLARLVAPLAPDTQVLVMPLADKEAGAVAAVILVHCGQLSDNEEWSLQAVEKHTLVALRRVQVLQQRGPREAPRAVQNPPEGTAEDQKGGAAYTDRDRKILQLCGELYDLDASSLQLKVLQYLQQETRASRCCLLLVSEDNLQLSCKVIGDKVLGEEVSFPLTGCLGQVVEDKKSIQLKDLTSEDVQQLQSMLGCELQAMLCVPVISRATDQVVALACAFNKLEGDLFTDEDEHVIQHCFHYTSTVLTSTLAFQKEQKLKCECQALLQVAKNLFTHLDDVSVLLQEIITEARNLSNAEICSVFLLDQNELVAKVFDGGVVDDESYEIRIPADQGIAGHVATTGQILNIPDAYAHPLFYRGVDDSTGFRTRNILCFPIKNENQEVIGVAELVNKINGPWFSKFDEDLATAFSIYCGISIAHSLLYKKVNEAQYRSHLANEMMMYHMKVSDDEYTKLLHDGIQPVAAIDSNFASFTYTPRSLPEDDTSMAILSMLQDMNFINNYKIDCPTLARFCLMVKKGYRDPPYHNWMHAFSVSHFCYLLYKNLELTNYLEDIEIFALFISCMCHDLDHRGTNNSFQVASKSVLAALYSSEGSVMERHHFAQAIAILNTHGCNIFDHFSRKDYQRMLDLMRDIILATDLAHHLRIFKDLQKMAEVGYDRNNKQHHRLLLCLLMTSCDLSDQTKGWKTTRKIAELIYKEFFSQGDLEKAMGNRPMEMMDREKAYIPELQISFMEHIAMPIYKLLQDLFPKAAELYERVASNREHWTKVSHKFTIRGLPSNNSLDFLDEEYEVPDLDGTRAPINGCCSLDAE
# UniProt Q9BRP1: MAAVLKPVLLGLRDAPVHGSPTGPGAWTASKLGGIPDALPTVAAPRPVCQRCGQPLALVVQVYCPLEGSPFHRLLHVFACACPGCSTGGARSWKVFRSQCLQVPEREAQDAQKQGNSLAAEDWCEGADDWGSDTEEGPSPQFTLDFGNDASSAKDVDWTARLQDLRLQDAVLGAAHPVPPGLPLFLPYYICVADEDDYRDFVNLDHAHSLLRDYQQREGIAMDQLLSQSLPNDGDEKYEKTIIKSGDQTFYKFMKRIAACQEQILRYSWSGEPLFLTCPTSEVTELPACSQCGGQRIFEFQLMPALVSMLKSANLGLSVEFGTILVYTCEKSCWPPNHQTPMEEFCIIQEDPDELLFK
# UniProt P35227: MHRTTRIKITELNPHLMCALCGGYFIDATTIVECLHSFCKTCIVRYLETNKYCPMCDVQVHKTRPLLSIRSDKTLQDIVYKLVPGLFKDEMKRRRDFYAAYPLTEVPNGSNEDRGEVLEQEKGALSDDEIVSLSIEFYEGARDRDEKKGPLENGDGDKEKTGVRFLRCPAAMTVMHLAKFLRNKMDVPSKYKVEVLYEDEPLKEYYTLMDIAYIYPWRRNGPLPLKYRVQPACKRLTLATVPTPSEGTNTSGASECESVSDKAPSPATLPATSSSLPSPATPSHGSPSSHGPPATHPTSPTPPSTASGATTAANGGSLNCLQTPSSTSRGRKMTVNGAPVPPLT
# UniProt Q9Y5B6: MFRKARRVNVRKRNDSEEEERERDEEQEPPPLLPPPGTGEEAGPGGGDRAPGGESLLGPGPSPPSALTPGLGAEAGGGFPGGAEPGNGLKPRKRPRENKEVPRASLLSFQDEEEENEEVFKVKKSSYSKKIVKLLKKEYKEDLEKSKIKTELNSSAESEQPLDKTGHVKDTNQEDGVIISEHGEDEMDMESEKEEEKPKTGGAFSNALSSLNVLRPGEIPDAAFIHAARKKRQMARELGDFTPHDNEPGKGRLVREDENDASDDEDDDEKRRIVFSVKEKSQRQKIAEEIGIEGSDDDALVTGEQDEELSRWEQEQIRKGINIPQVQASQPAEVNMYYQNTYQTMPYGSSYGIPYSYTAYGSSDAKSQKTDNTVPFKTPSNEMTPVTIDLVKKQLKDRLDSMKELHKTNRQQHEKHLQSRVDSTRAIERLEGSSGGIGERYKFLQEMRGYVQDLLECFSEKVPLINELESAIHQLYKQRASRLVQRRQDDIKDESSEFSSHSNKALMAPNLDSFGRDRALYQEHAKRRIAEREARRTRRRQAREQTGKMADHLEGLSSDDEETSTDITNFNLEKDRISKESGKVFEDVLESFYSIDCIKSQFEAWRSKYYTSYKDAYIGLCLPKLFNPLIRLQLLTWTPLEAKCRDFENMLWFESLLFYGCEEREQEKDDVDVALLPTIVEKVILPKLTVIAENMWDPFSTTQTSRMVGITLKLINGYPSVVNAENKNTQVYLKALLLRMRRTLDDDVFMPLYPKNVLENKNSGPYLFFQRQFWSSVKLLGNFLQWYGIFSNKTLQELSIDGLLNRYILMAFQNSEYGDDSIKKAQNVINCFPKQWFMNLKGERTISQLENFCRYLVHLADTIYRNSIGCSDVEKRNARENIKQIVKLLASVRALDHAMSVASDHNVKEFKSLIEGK
# UniProt Q8NBP7, whole entry, looked up: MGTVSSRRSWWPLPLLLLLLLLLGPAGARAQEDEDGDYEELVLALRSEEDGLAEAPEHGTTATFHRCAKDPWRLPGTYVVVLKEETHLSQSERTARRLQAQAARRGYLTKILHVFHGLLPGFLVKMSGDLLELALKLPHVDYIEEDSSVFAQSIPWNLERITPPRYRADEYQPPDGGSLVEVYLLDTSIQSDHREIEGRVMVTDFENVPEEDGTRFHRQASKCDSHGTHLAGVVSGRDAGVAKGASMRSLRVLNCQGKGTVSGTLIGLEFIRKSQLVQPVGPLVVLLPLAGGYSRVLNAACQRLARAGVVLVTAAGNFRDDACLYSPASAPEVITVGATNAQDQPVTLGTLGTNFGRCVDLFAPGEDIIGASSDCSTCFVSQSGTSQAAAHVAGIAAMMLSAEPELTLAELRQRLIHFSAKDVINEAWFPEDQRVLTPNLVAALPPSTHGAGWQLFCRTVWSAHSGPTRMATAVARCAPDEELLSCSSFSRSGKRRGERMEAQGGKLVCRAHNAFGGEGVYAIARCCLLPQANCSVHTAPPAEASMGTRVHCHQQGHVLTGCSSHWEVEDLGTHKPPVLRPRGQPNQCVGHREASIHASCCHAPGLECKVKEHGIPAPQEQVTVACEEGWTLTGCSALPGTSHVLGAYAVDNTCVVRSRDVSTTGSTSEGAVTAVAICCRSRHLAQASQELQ
# UniProt H7BZJ3: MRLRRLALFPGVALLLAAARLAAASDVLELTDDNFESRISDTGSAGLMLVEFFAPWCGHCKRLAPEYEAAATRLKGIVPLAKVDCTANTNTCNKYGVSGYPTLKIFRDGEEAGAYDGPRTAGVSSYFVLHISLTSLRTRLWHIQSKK
# UniProt P08237: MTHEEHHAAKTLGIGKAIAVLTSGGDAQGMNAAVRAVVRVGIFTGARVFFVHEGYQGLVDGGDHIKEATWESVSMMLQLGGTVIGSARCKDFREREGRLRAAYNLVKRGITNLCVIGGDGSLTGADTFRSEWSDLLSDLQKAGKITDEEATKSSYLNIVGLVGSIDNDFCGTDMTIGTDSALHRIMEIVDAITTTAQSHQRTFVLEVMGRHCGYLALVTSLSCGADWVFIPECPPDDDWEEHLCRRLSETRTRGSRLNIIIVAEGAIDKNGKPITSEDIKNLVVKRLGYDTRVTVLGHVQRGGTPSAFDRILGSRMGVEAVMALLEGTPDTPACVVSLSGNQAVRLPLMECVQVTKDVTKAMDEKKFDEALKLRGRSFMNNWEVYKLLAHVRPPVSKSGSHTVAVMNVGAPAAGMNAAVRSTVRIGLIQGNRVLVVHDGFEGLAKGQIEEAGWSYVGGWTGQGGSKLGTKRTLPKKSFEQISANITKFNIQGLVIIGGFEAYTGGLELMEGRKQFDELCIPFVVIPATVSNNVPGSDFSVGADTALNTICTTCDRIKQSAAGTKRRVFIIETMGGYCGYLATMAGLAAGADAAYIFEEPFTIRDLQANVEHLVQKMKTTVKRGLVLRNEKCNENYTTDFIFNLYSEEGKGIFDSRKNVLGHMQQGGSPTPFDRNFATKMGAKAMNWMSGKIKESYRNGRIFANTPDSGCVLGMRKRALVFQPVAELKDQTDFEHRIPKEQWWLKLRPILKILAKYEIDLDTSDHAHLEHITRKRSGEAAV
# UniProt Q9UHG3: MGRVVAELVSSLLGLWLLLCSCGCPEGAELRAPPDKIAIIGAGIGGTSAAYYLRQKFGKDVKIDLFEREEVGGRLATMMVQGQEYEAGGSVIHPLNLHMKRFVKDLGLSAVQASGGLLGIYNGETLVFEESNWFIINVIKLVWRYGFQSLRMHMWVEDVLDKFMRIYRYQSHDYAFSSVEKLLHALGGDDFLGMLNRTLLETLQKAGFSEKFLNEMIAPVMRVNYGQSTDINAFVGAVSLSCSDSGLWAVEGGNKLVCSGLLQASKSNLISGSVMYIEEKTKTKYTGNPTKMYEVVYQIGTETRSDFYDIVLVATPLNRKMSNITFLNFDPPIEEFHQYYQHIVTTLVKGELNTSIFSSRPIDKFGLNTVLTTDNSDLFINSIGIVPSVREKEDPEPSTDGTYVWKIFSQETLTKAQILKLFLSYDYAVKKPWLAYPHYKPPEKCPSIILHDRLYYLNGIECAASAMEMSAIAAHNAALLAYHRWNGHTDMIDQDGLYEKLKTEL
# This is one part of the list.
# Legend:
# Test in all cases: log2 fold change, soluble protein after heating vs DMSO (PISA); higher = thermal stabilisation; K562 lysate, 10 uM; active = over 0.2 and 3.5 SD of the protein, either way, in both replicates (recomputed)
# [1] = compound: C=CC(=O)N1CCC[C@@H](n2nc(-c3ccc(Oc4ccccc4)cc3)c3c(N)ncnc32)C1 [ibrutinib]
# How it was run: (§1)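 The values are log-two fold changes in thermal stability compared with solvent controls and come from duplicates. They were obtained by TMTpro 16plex LC-MS/MS, with channel sums equalised, on the supernatant after 21,000xg for 90 min. That supernatant came from crude K562 extract at 1 mg/mL protein treated with 10 μM compound for 30 min, heated for 3 min across 48°C-58°C, pooled and brought to 0.5% NP-40 at 4°C.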
# [2] = compound: CC(=O)c1cnc2ccc(-c3cc(Cl)c(O)c(Cl)c3)nc2c1N[C@H]1CC[C@H](CN(C)C)CC1
# How it was run: as §1
# [3] = compound: CC(C)(C)Cn1c(N)nc2ccc(-c3[nH]c(C(C)(C)C)nc3-c3ccc(F)cc3)nc21 [ralimetinib]
# How it was run: as §1
# [4] = compound: CC(C)(O)CC(=O)NCCn1ccc2ncnc(Nc3ccc(Oc4cccc(C(F)(F)F)c4)c(Cl)c3)c21
# How it was run: as §1
# [5] = compound: CC(C)C1=C2N=C(C=C(N2N=C1)NCC3=CC=CC=C3)NCCCCCCN
# How it was run: as §1
# [6] = compound: CC1=C(C(CC(=O)N1)C2=CC=C(C=C2)C(F)(F)F)C(=O)NC3=C(C=C4C(=C3)C=NN4)F
# How it was run: as §1
# [7] = compound: CC1=C(C2=C(C=C1)C(=O)C3=CC=CC=C3N2CCCN)C
# How it was run: as §1
# [8] = compound: CC1=C(C=C(C=C1)NC(=O)C2=CC(=CC=C2)C(C)(C)C#N)NC3=CC4=C(C=C3)N=CN(C4=O)C
# How it was run: as §1
# [9] = compound: CC1=C(C=C(C=C1)NC(=O)C2=CC(=CC=C2)N(C)C)NC(=O)C3=CC=C(C=C3)O
# How it was run: as §1
# [10] = compound: CC1=CC=C(C=C1)SC2=C3C=C(SC3=CN=C2)C(=O)N
# How it was run: as §1
# [11] = compound: CCCS(=O)(=O)Nc1ccc(F)c(C(=O)c2c[nH]c3ncc(-c4ccc(Cl)cc4)cc23)c1F [vemurafenib]
# How it was run: as §1
# [12] = compound: CCCS(=O)(=O)Nc1ccc(F)c(C(=O)c2c[nH]c3ncc(Cl)cc23)c1F
# How it was run: as §1
# [13] = compound: CCN(CCCOc1ccc2c(Nc3cc(CC(=O)Nc4cccc(F)c4)[nH]n3)ncnc2c1)CCOP(=O)(O)O [barasertib]
# How it was run: as §1
# [14] = compound: CC[C@@H]1C(=O)N(C)c2cnc(Nc3ccc(C(=O)NC4CCN(C)CC4)cc3OC)nc2N1C1CCCC1
# How it was run: as §1
# [15] = compound: CC[C@@H]1C(=O)N(C)c2cnc(Nc3ccc(C(=O)N[C@H]4CC[C@H](N5CCN(CC6CC6)CC5)CC4)cc3OC)nc2N1C(C)C [volasertib]
# How it was run: as §1
# [16] = compound: CCn1c(C(=O)N(C2CC2)C2CC2)cc2c3c(ncn3C)c(Nc3cc(C)n(C)n3)nc21
# How it was run: as §1
# [17] = compound: CCn1cc(-c2ccnc3[nH]c(-c4cccc(CN(C)C)c4)cc23)c(-c2ccc(NC(=O)N(C)C)cc2)n1
# How it was run: as §1
# [18] = compound: CN1CCC(CNc2ccc3ncc(-c4cccc(OC(F)(F)F)c4)n3n2)CC1
# How it was run: as §1
# [19] = compound: CN1CCN(CCOc2cc(OC3CCOCC3)c3c(Nc4c(Cl)ccc5c4OCO5)ncnc3c2)CC1 [saracatinib]
# How it was run: as §1
# [20] = compound: CN1CCN(c2nc(C3=C(c4c[nH]c5ccccc45)C(=O)NC3=O)c3ccccc3n2)CC1 [sotrastaurin]
# How it was run: as §1
Target,log2 fold change [1],log2 fold change [2],log2 fold change [3],log2 fold change [4],log2 fold change [5],log2 fold change [6],log2 fold change [7],log2 fold change [8],log2 fold change [9],log2 fold change [10],log2 fold change [11],log2 fold change [12],log2 fold change [13],log2 fold change [14],log2 fold change [15],log2 fold change [16],log2 fold change [17],log2 fold change [18],log2 fold change [19],log2 fold change [20]
PDPK1 (UniProt O15530),inactive: 0.026,inactive: 0.236,inactive: 0.067,inactive: -0.075,inactive: 0.021,inactive: 0.163,inactive: -0.034,inactive: -0.056,inactive: -0.006,inactive: -0.021,inactive: -0.03,inactive: -0.002,inactive: -0.027,inactive: -0.06,inactive: -0.047,inactive: 0.012,inactive: 0.041,inactive: -0.017,inactive: -0.025,inactive: 0.133
PARP1 (UniProt P09874),inactive: 0.005,inactive: -0.005,inactive: -0.028,inactive: 0.014,inactive: 0.019,inactive: -0.004,inactive: 0,inactive: -0.018,inactive: 0.02,inactive: 0.014,inactive: 0.003,inactive: 0.018,inactive: 0.001,inactive: -0.016,inactive: -0.012,inactive: 0.013,inactive: 0.113,inactive: -0.075,inactive: -0.005,inactive: -0.013
PDCL (UniProt Q13371),inactive: 0.002,inactive: -0.028,inactive: 0.006,inactive: -0.057,inactive: 0.027,inactive: -0.018,inactive: -0.047,inactive: 0.04,inactive: 0.015,inactive: -0.006,inactive: 0.014,inactive: 0.017,inactive: -0.001,inactive: 0.012,inactive: -0.015,inactive: -0.009,inactive: -0.071,inactive: -0.014,inactive: -0.021,inactive: 0.027
PFKP (UniProt Q01813),inactive: -0.001,inactive: 0.009,inactive: 0.004,inactive: -0.029,inactive: 0.001,inactive: -0.015,inactive: 0.007,inactive: 0.003,inactive: 0.002,inactive: 0.062,inactive: -0.047,inactive: -0.056,inactive: 0.018,inactive: -0.005,inactive: 0.015,inactive: -0.007,inactive: 0.052,inactive: -0.033,inactive: 0.008,inactive: -0.025
PET100 (UniProt P0DJ07),inactive: 0.022,inactive: -0.03,inactive: 0.031,inactive: 0.041,inactive: -0.037,inactive: 0.023,inactive: -0.004,inactive: -0.1,inactive: 0,inactive: -0.051,inactive: 0,inactive: 0.046,inactive: 0.017,inactive: 0.107,inactive: -0.035,inactive: 0.04,inactive: 0.23,inactive: -0.221,inactive: -0.005,inactive: 0.056
PCNT (UniProt O95613),inactive: -0.014,inactive: -0.014,inactive: 0.018,inactive: -0.039,inactive: 0.027,inactive: -0.003,inactive: -0.014,inactive: 0.014,inactive: 0.021,inactive: -0.046,inactive: 0,inactive: 0,inactive: 0.037,inactive: 0.02,inactive: -0.012,inactive: -0.003,inactive: -0.196,inactive: 0.028,inactive: 0.014,inactive: 0.023
PCYT2 isoform 3 (UniProt Q99447),inactive: -0.058,inactive: 0.003,inactive: 0.046,inactive: -0.007,inactive: 0.006,inactive: 0.009,inactive: -0.016,inactive: 0.007,inactive: 0.009,inactive: 0.029,inactive: 0.003,inactive: -0.017,inactive: 0.053,inactive: 0.03,inactive: -0.044,inactive: -0.002,inactive: -0.069,inactive: 0.02,inactive: -0.007,inactive: 0.009
PDE2A (UniProt O00408),inactive: -0.008,inactive: -0.148,inactive: -0.202,inactive: -0.107,inactive: -0.045,inactive: -0.018,inactive: 0.025,inactive: -0.038,inactive: 0.01,inactive: -0.11,active: 0.374,inactive: -0.015,inactive: -0.015,inactive: -0.215,inactive: 0.041,inactive: -0.173,inactive: -0.135,inactive: 0.023,inactive: -0.042,inactive: 0.039
PDCD2L (UniProt Q9BRP1),inactive: 0.005,inactive: -0.033,inactive: 0.028,inactive: -0.031,inactive: -0.021,inactive: -0.026,inactive: -0.024,inactive: 0.036,inactive: 0.01,inactive: -0.01,inactive: 0.058,inactive: 0.004,inactive: -0.06,inactive: 0.011,inactive: -0.039,inactive: -0.017,inactive: -0.076,inactive: 0.009,inactive: -0.003,inactive: -0.012
PCGF2 (UniProt P35227),inactive: 0.028,inactive: -0.045,inactive: -0.028,inactive: -0.002,inactive: -0.077,inactive: 0.033,inactive: -0.048,inactive: 0.012,inactive: 0.071,inactive: 0.014,inactive: 0.029,inactive: 0.104,inactive: 0.014,inactive: 0.088,inactive: -0.008,inactive: 0.084,inactive: 0.031,inactive: -0.089,inactive: 0.024,inactive: -0.003
PAXBP1 (UniProt Q9Y5B6),inactive: -0.004,inactive: 0.019,inactive: 0.027,inactive: -0.015,inactive: 0.006,inactive: -0.024,inactive: 0.007,inactive: -0.007,inactive: 0.077,inactive: 0.032,inactive: 0.072,inactive: 0.006,inactive: 0.07,inactive: -0.008,inactive: -0.058,inactive: 0.042,inactive: 0.043,inactive: 0.004,inactive: 0.02,inactive: 0.025
PCSK9 (UniProt Q8NBP7),inactive: -0.032,inactive: -0.028,inactive: 0.043,inactive: -0.05,inactive: -0.044,inactive: -0.036,inactive: -0.039,inactive: 0.048,inactive: -0.062,inactive: 0.011,inactive: 0.034,inactive: -0.005,inactive: 0.106,inactive: 0,inactive: 0.015,inactive: 0.016,inactive: -0.045,inactive: 0.024,inactive: -0.063,inactive: -0.039
PDIA3 (UniProt H7BZJ3),inactive: -0.006,inactive: 0.05,inactive: -0.16,inactive: -0.006,inactive: -0.016,inactive: -0.032,inactive: 0.038,inactive: 0.011,inactive: -0.067,inactive: 0.003,inactive: 0.033,inactive: -0.004,inactive: -0.05,inactive: 0.102,inactive: -0.022,inactive: -0.092,inactive: 0.051,inactive: 0.112,inactive: -0.099,inactive: -0.035
PFKM isoform 3 (UniProt P08237),inactive: 0.016,inactive: -0.001,inactive: -0.009,inactive: -0.01,inactive: -0.006,inactive: -0.003,inactive: 0.012,inactive: 0,inactive: -0.009,inactive: 0.08,inactive: -0.044,inactive: -0.061,inactive: -0.005,inactive: 0.007,inactive: 0.007,inactive: 0.011,inactive: -0.041,inactive: 0.029,inactive: 0.014,inactive: 0.026
PCYOX1 (UniProt Q9UHG3),inactive: 0.029,inactive: 0.001,inactive: 0.013,inactive: 0.02,inactive: -0.009,inactive: 0.053,inactive: 0.026,inactive: 0.01,inactive: 0,inactive: -0.004,inactive: -0.01,inactive: -0.013,inactive: 0.011,inactive: -0.018,inactive: 0.013,inactive: -0.01,inactive: 0.025,inactive: 0.023,inactive: 0.001,inactive: 0.024
PEX14 (UniProt O75381),inactive: 0.022,inactive: 0.007,inactive: -0.014,inactive: -0.03,inactive: -0.038,inactive: 0.039,inactive: 0.015,inactive: 0.02,inactive: -0.036,inactive: 0,inactive: -0.016,inactive: 0.01,inactive: 0.019,inactive: 0.031,inactive: -0.026,inactive: 0.003,inactive: -0.101,inactive: 0.003,inactive: -0.014,inactive: 0.013

# Single records (already shown). Values in the order: log2 fold change [1]	log2 fold change [2]	log2 fold change [3]	log2 fold change [4]	log2 fold change [5]	log2 fold change [6]	log2 fold change [7]	log2 fold change [8]	log2 fold change [9]	log2 fold change [10]	log2 fold change [11]	log2 fold change [12]	log2 fold change [13]	log2 fold change [14]	log2 fold change [15]	log2 fold change [16]	log2 fold change [17]	log2 fold change [18]	log2 fold change [19]	log2 fold change [20]
# PEX14 (UniProt O75381) is listed as inactive: 0.022	inactive: 0.007	inactive: -0.014	inactive: -0.03	inactive: -0.038	inactive: 0.039	inactive: 0.015	inactive: 0.02	inactive: -0.036	inactive: 0	inactive: -0.016	inactive: 0.01	inactive: 0.019	inactive: 0.031	inactive: -0.026	inactive: 0.003	inactive: -0.101	inactive: 0.003	inactive: -0.014	inactive: 0.013
# PAXBP1 (UniProt Q9Y5B6) is listed as inactive: -0.004	inactive: 0.019	inactive: 0.027	inactive: -0.015	inactive: 0.006	inactive: -0.024	inactive: 0.007	inactive: -0.007	inactive: 0.077	inactive: 0.032	inactive: 0.072	inactive: 0.006	inactive: 0.07	inactive: -0.008	inactive: -0.058	inactive: 0.042	inactive: 0.043	inactive: 0.004	inactive: 0.02	inactive: 0.025
